Measured values reported in article PMC6394298.
These are yes or no findings as the source states them, for the method shown. Binding seen in cells or lysates may run through a third protein. Some entries that bind do so weakly or less than the wild type.

Sequences of proteins named here, by UniProt entry; tags and fusion partners are left off. A change or cut given only in a name is not applied to a line headed by its entry. A line that says so, or that is headed by a name, gives the form on record, which may keep a tag or linker.
His6-tagged wild-type paxillin (mouse paxillin-α) (Q8VI36, form named): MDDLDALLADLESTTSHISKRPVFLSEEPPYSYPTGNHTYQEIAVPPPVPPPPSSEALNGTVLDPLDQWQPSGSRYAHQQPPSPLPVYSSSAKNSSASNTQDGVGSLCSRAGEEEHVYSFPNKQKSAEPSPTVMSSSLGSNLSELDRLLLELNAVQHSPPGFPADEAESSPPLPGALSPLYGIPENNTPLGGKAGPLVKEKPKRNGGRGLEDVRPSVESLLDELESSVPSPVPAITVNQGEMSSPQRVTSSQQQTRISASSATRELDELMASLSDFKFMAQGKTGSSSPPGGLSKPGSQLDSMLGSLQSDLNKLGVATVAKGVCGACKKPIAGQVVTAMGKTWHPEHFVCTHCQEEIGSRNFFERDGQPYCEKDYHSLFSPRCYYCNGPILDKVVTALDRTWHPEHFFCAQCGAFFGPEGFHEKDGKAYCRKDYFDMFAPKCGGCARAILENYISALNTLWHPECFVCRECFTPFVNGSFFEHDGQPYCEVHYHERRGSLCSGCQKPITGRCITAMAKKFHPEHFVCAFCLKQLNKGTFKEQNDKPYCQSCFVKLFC

Biological target: His6-tagged wild-type paxillin (mouse paxillin-α) (mouse) (UniProt Q8VI36)
Assay: pull-down; His6-tagged paxillin (WT, S273A, S273D) or His6-tagged DDX42 (WT, D407A) overexpressed in Ba/F3 cells, precipitated from the lysate with Ni-NTA agarose beads; co-precipitated endogenous proteins detected by western blot (anti-DDX42, anti-GIT1, anti-paxillin); mock-transfected and parental cells as controls

| Binder | binding |
| --- | --- |
| ARF GTPase-activating protein GIT1 (protein, UniProt Q68FF6 1-770) MSRKGPRAEVCADCSAPDPGWASISRGVLVCDECCSVHRSLGRHISIVKHLRHSAWPPTLLQMVHTLASNGANSIWEHSLLDPAQVQSGRRKANPQDKVHPIKSEFIRAKYQMLAFVHKLPCRDDDGVTAKDLSKQLHSSVRTGNLETCLRLLSLGAQANFFHPEKGTTPLHVAAKAGQTLQAELLVVYGADPGSPDVNGRTPIDYARQAGHHELAERLVECQYELTDRLAFYLCGRKPDHKNGHYIIPQMADRSRQKCMSQSLDLSELAKAAKKKLQALSNRLFEELAMDVYDEVDRRENDAVWLATQNHSTLVTERSAVPFLPVNPEYSATRNQGRQKLARFNAREFATLIIDILSEAKRRQQGKSLSSPTDNLELSARSQSELDDQHDYDSVASDEDTDQEPLPSAGATRNNRARSMDSSDLSDGAVTLQEYLELKKALATSEAKVQQLMKVNSSLSDELRRLQREIHKLQAENLQLRQPPGPVPPPSLPSERAEHTLMGPGGSTHRRDRQAFSMYEPGSALKPFGGTPGDELATRLQPFHSTELEDDAIYSVHVPAGLYRIRKGVSASSVPFTPSSPLLSCSQEGSRHASKLSRHGSGADSDYENTQSGDPLLGLEGKRFLELSKEDELHPELESLDGDLDPGLPSTEDVILKTEQVTKNIQELLRAAQEFKHDSFVPCSEKIHLAVTEMASLFPKRPALEPVRSSLRLLNASAYRLQSECRKTVPPEPGAPVDFQLLTQQVIQCAYDIAKAAKQLVTITTREKKQ | binds |
| ATP-dependent RNA helicase DDX42 (protein, UniProt Q810A7 1-929) MNWNKGGPGTKRGFGFGGFAISAGKKEEAKLPQQSHSAFGAASSSSGFGKSAPPQLPSFYKIGSKRANFDEENAYFEDEEEDSSNVDLPYIPAENSPTRQQFHSKPADSDSDDDPLEAFMAEVEDQAARDMKRLEEKDKERKNVKGIRDDIEEEDDQEAYFRYMAENPTAGVVQEEEEDNLEYDSDGNPIAPSKKIIDPLPPIDHSEIDYPPFEKNFYNEHEEITNLTPQQLIDLRHKLNLRVSGAAPPRPGSSFAHFGFDEQLMHQIRKSEYTQPTPIQCQGVPVALSGRDMIGIAKTGSGKTAAFIWPMLIHIMDQKELEPGDGPIAVIVCPTRELCQQIHAECKRFGKAYNLRSVAVYGGGSMWEQAKALQEGAEIVVCTPGRLIDHVKKKATNLQRVSYLVFDEADRMFDMGFEYQVRSIASHVRPDRQTLLFSATFRKKIEKLARDILIDPIRVVQGDIGEANEDVTQIVEILHSGPSKWNWLTRRLVEFTSSGSVLLFVTKKANAEELASNLKQEGHNLGLLHGDMDQSERNKVISDFKKKDIPVLVATDVAARGLDIPSIKTVINYDVARDIDTHTHRIGRTGRAGEKGVAYTLLTPKDSNFAGDLVRNLEGANQHVSKELLDLAMQNAWFRKSRFKGGKGKKLNIGGGGLGYRERPGLGSENSDRGNNNNVMSNYEAYKPSTGAMGDRLTAMKAAFQSQYKSHFVAASLSNQKAGTSSAGASGWTSAGSLNSVPTNSAQQGHNSPDNPMTSSTKNIPGFNNSGNISSAPVTYPSIGAQGVNNTASGNNSREGIGGGNGKRERYTENRGGSRHSHGDGGNRHGDGGRHGDGYRYPESGSRHTDGHRHGETRHGGSAGRHGESRGANDGRNGESRKEGFNRENKMDPKVDSSRMDKVDSKTDKTPDGFAVPEPPKRKKSRWDS | binds |
